# The list shows a part of the results.
# B1: Fap1 (Streptococcus parasanguis) (protein)
# chain: KATSKGTEEKQDSVRENLDKMISEAEVLNDMAARKLITLDAEQQLELMKSLVATQSQLEATKNLIGDPNATVADLQIAYTTLGNNTQALGNELIKLNPNGQIYAVLNNTEASRAATLRSTTTGTKTTFTISDFSNGGTQYYWAGGNANNLKNPISSISAVYDSATGKISWTVEYDPTTILKSPALKTLKTYTGIYIDTSSDSKLSTPTNVLIDGAATNPVTNFYGNGSKGIEYVSKGTTKGVTKHTITFDTAFSGRANDLADLEIKMLAATTLSDPHFYEDGSKGNYGRYNGQTAPYVIANDSGTAIGGYQVSGVNADSIPSDTT
# Key:
# Test in all cases: glycan array binding signal (z-score within array); higher = stronger binding
# Conditions in all cases: glycan notation: IUPAC condensed, linker removed
# [1] = target: Gal(b1-3)GlcNAc(b1-3)Gal(b1-4)GlcNAc
# In short: (§1)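 The binding signal is a Z-score computed within each array and averaged over linkers. Arrays of the same protein sequence at different concentrations or buffers were also averaged together. Data originate from 3228 arrays in the Consortium for Functional Glycomics database, kept only where the protein sequence was available.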
# [2] = target: Gal(b1-3)[Fuc(a1-4)]GlcNAc
# In short: as §1
# [3] = target: Gal(b1-3)[Fuc(a1-4)]GlcNAc(b1-3)Gal(b1-3)[Fuc(a1-4)]GlcNAc
# In short: as §1
# [4] = target: Gal(b1-3)[Fuc(a1-4)]GlcNAc(b1-3)Gal(b1-4)GlcNAc
# In short: as §1
# [5] = target: Gal(b1-3)[Fuc(a1-4)]GlcNAc(b1-3)Gal(b1-4)[Fuc(a1-3)]GlcNAc
# In short: as §1
# [6] = target: Gal(b1-3)[GlcNAc(b1-6)]GalNAc
# In short: as §1
# [7] = target: Gal(b1-3)[Neu5Ac(a2-6)]GalNAc
# In short: as §1
# [8] = target: Gal(b1-3)[Neu5Ac(a2-6)]GlcNAc(b1-6)Gal(b1-4)Glc
# In short: as §1
# [9] = target: Gal(b1-3)[Neu5Ac(b2-6)]GalNAc
# In short: as §1
# [10] = target: Gal(b1-4)GalNAc(a1-3)[Fuc(a1-2)]Gal(b1-4)GlcNAc
# In short: as §1
# [11] = target: Gal(b1-4)GalNAc(b1-3)[Fuc(a1-2)]Gal(b1-4)GlcNAc
# In short: as §1
# [12] = target: Gal(b1-4)Glc
# In short: as §1
# [13] = target: Gal(b1-4)Glc6S
# In short: as §1
# [14] = target: Gal(b1-4)GlcNAc
# In short: as §1
# [15] = target: Gal(b1-4)GlcNAc(b1-2)Man(a1-3)[Gal(b1-4)GlcNAc(b1-2)Man(a1-6)]Man(b1-4)GlcNAc(b1-4)GlcNAc
# In short: as §1
# [16] = target: Gal(b1-4)GlcNAc(b1-3)Gal(b1-3)GlcNAc
# In short: as §1
# [17] = target: Gal(b1-4)GlcNAc(b1-3)Gal(b1-4)Glc
# In short: as §1
# [18] = target: Gal(b1-4)GlcNAc(b1-3)Gal(b1-4)GlcNAc
# In short: as §1
# [19] = target: Gal(b1-4)GlcNAc(b1-3)Gal(b1-4)GlcNAc(b1-3)Gal(b1-4)GlcNAc
# In short: as §1
# [20] = target: Gal(b1-4)GlcNAc(b1-3)Gal(b1-4)[Fuc(a1-3)]GlcNAc(b1-3)Gal(b1-4)[Fuc(a1-3)]GlcNAc
# In short: as §1
# [21] = target: Gal(b1-4)GlcNAc(b1-3)GalNAc
# In short: as §1
# [22] = target: Gal(b1-4)GlcNAc(b1-3)[Gal(b1-4)GlcNAc(b1-6)]GalNAc
# In short: as §1
# [23] = target: Gal(b1-4)GlcNAc(b1-6)Gal(b1-4)GlcNAc(b1-6)GalNAc
# In short: as §1
# [24] = target: Gal(b1-4)GlcNAc(b1-6)GalNAc
# In short: as §1
# [25] = target: Gal(b1-4)GlcNAc(b1-6)[Gal(b1-3)]GalNAc
# In short: as §1
# [26] = target: Gal3S(b1-3)GalNAc
# In short: as §1
# [27] = target: Gal3S(b1-3)GlcNAc
# In short: as §1
# [28] = target: Gal3S(b1-3)[Fuc(a1-4)]GlcNAc
# In short: as §1
# [29] = target: Gal3S(b1-4)Glc
# In short: as §1
# [30] = target: Gal3S(b1-4)Glc6S
# In short: as §1
# [31] = target: Gal3S(b1-4)GlcNAc
# In short: as §1
# [32] = target: Gal3S(b1-4)GlcNAc6S
# In short: as §1
# [33] = target: Gal3S(b1-4)[Fuc(a1-3)]Glc
# In short: as §1
# [34] = target: Gal3S6S(b1-4)GlcNAc
# In short: as §1
# [35] = target: Gal3S6S(b1-4)GlcNAc6S
# In short: as §1
# [36] = target: Gal4S(b1-4)GlcNAc
# In short: as §1
# [37] = target: Gal4S6S(b1-4)GlcNAc
# In short: as §1
# [38] = target: Gal6S(b1-4)Glc
# In short: as §1
binder,measurement,setting,value
B1,glycan array binding signal (z-score),[1],-0.243
same,glycan array binding signal (z-score),[2],0.21
same,glycan array binding signal (z-score),[3],0.004
same,glycan array binding signal (z-score),[4],-0.712
same,glycan array binding signal (z-score),[5],-0.619
same,glycan array binding signal (z-score),[6],-0.4
same,glycan array binding signal (z-score),[7],-0.055
same,glycan array binding signal (z-score),[8],-0.688
same,glycan array binding signal (z-score),[9],-0.541
same,glycan array binding signal (z-score),[10],-0.822
same,glycan array binding signal (z-score),[11],0.142
same,glycan array binding signal (z-score),[12],-0.51
same,glycan array binding signal (z-score),[13],-0.072
same,glycan array binding signal (z-score),[14],0.13
same,glycan array binding signal (z-score),[15],-0.304
same,glycan array binding signal (z-score),[16],-0.913
same,glycan array binding signal (z-score),[17],-0.861
same,glycan array binding signal (z-score),[18],-0.545
same,glycan array binding signal (z-score),[19],-0.471
same,glycan array binding signal (z-score),[20],0.461
same,glycan array binding signal (z-score),[21],1.12
same,glycan array binding signal (z-score),[22],-0.525
same,glycan array binding signal (z-score),[23],-0.15
same,glycan array binding signal (z-score),[24],0.546
same,glycan array binding signal (z-score),[25],-0.693
same,glycan array binding signal (z-score),[26],0.329
same,glycan array binding signal (z-score),[27],-0.277
same,glycan array binding signal (z-score),[28],0.104
same,glycan array binding signal (z-score),[29],0.082
same,glycan array binding signal (z-score),[30],0.88
same,glycan array binding signal (z-score),[31],-0.22
same,glycan array binding signal (z-score),[32],0.499
same,glycan array binding signal (z-score),[33],0.384
same,glycan array binding signal (z-score),[34],0.649
same,glycan array binding signal (z-score),[35],1.8
same,glycan array binding signal (z-score),[36],1.82
same,glycan array binding signal (z-score),[37],0.462
same,glycan array binding signal (z-score),[38],-0.414

# Rewritten tab-delimited: part of the list above
binder	measurement	setting	value
B1	glycan array binding signal (z-score)	[6]	-0.4
same	glycan array binding signal (z-score)	[7]	-0.055
